Measured values: publication PMC5007356
No constants are given. Whether binding was seen depends on the method and setting. In cells and extracts the contact can be indirect. Binding calls can cover weak binding; strength is not graded here. Values belong to the molecule of their own block, whether it stands above or below them.

By UniProt entry, the sequences of proteins in these tests, tags left out. Where a name states a change or a piece, a line headed by the entry shows the natural chain unless it says otherwise.
UniProt Q9VV79: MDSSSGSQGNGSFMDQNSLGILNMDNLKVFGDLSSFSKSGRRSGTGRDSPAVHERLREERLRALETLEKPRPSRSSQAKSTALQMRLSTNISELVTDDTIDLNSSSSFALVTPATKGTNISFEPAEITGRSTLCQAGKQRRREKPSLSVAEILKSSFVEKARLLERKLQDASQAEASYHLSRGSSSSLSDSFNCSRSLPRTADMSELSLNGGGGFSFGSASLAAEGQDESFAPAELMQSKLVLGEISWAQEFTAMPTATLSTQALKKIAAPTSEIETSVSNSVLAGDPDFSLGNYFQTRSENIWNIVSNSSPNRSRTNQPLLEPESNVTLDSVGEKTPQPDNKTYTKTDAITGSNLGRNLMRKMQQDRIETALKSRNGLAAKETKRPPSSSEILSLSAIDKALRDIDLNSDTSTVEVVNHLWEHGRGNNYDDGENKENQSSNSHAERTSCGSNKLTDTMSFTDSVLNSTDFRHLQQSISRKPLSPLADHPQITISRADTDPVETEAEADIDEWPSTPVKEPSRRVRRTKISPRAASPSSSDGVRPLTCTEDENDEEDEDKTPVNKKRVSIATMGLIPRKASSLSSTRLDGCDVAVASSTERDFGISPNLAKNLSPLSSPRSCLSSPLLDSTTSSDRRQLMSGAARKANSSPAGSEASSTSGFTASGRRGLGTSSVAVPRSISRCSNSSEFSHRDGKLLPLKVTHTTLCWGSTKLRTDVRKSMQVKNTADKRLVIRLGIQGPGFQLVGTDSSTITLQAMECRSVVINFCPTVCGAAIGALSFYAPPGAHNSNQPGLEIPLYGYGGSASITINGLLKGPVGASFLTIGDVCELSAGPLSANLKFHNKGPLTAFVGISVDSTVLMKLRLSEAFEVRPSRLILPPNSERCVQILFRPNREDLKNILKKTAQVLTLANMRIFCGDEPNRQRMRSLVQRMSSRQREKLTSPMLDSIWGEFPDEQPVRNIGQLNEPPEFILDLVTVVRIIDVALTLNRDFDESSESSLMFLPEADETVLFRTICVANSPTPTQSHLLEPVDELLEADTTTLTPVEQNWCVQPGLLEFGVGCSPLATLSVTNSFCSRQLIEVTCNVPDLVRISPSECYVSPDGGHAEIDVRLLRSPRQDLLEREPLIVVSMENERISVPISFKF
UniProt O18402: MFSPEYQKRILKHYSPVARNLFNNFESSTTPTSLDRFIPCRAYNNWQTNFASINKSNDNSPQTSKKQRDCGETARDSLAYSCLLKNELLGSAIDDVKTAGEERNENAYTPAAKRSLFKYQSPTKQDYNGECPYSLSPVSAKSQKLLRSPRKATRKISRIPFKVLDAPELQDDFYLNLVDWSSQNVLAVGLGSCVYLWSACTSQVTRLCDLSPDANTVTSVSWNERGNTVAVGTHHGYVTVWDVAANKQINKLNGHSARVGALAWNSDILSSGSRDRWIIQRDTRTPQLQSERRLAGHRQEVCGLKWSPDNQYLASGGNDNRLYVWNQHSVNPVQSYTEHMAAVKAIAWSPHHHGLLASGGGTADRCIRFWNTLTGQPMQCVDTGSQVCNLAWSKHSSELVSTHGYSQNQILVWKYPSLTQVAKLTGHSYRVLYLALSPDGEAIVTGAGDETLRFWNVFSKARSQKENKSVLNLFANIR

Experiments:
[1] = target: Spd2 (endogenous) (Drosophila melanogaster (endogenous in D. mel-2 cells, embryos and larval brains)) (UniProt Q9VV79); experiment: co-IP; anti-Spd2 antibody on PrA-coupled Dynabeads, wild-type D. mel-2 cell extract, 2 h at 4 °C; pre-immune rabbit serum as control; immunoblot
[2] = target: Fzr-GFP^fosmid (Drosophila melanogaster) (UniProt O18402); experiment: co-IP; GFP-Trap-MA beads, extract of 30 third instar larval brains of the fzr-GFP^fosmid line; immunoblot
[3] = target: GST-Spd2 (Drosophila melanogaster); experiment: pull-down; GST or GST-Spd2 fusion on Glutathione Sepharose beads mixed with 35S-labelled in vitro translated protein; 50 mM HEPES pH 7.5, 150 mM NaCl, 0.1% Triton X-100, 0.5 mg/ml BSA, 1 mM DTT; 30 min at room temperature; autoradiography; only the target purified

- binding [1]: binds
Molecule: Fzr (endogenous) (from UniProt O18402 1-478)

- binding [2]: binds
Molecule: Spd2 (endogenous) (from UniProt Q9VV79)

- binding [3]: binds
B1: ^35S-labelled Fzy (protein, UniProt Q24044 1-526)
chain: MSQFNFVSDLQNALIMDGETRGPAPRWKKKLEASLNGSVNTTRSVLSVSYNTSFSGVQAPTKTPGKSSEGKTKKSNTTPSKTPGGGDRFIPNRAATNFELAHFLVNKDSGDKSDEENDKATSSNSNESNVQASAHKGDRQKLISEVAQVGDSKGGRILCYQNKAPAAPETHNNPLKVVYSIKTPISTKSGSRYIPTTSERILDAPDFINDYYLNLMDWSADNIVAVALGSCVYLWNAQTGNIEQLTEFEEGDYAGSLSWIQEGQILAIGNSTGAVELWDCSKVKRLRVMDGHSARVGSLAWNSFLVSSGSRDGTIVHHDVRAREHKLSTLSGHTQEVCGLKWSTDFKYLASGGNDNLVNVWSAASGGVGTATDPLHKFNDHQAAVRALAWCPWQPSTLASGGGTADRCIKFWNVNNGTLMKSVDSKSQVCSLLFSRHYKELISAHGFANNQLTIWKYPTMVKQADLTGHTSRVLQMAMSPDGSTVISAGADETLRLWNCFAPDPLASKKAVSTSKGKQSVFRQSIR
modifications: 35S-methionine-labelled
